PubChem BioAssay AID1671195, Yale University, 2021
Here is a random part of about 22,000 reagents. About 1,510 of them (6.9%) were called active. 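Active includes knockdowns raising or lowering LDL uptake; positive z-scores mean more uptake, negative mean less.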

Assay: 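Knockdowns that increase or decrease uptake of fluorescent LDL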 (primary screen)
Cells: human Huh7 hepatoma cells
Reagents: siRNA pool against human genes, 18 nM
Timing: about 2 to 2.5 days of knockdown, then 8 h LDL uptake
Challenge: DiI-labelled LDL at 30 µg/ml for 8 h, in lipoprotein-deficient serum medium
Measured: 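Per-cell DiI-LDL intensity by automated imaging; well means scaled to the plate median and given as a robust z-score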
Reading the numbers: robust z-score: higher = more LDL uptake after knockdown
Hit rule: 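a gene counts as active if at least two replicate z-scores exceed ±2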

| target | robust z-score, replicate 1 | robust z-score, replicate 2 | robust z-score, replicate 3 | Outcome |
| --- | --- | --- | --- | --- |
| CCIN (calicin) | -0.311 | -0.802 | 0.341 | inactive |
| POLG (DNA polymerase gamma, catalytic subunit) | 0.0391 | 0.237 | 0.432 | inactive |
| ZNF280B (zinc finger protein 280B) | -0.0171 | -0.607 | -0.221 | inactive |
| STOML1 (stomatin like 1) | 3.4 | -0.103 | 1.41 | inactive |
| LINC01623 (long independently transcribed non-coding RNA 1623) | -0.065 | 0.601 | 0.0673 | inactive |
| ATP1B4 (ATPase Na+/K+ transporting family member beta 4) | 2.53 | 2.08 | 1.81 | active |
| HS2ST1 (heparan sulfate 2-O-sulfotransferase 1) | -0.791 | -0.543 | -0.291 | inactive |
| DMTF1 (cyclin D binding myb like transcription factor 1) | 0.351 | -0.251 | 0.297 | inactive |
| DNM1L (dynamin 1L) | 0.383 | 1.64 | 0.358 | inactive |
| TMEM100 (transmembrane protein 100) | 1.15 | 1.38 | 1.34 | inactive |
| POLD3 (DNA polymerase delta 3, accessory subunit) | 0.619 | -1.02 | -0.549 | inactive |
| UAP1L1 (UDP-N-acetylglucosamine pyrophosphorylase 1 like 1) | -1.12 | -0.669 | -0.252 | inactive |
| CIAO1 (cytosolic iron-sulfur assembly component 1) | 1.52 | -1.2 | -0.916 | inactive |
| LOC440424 (retired record) | 0.279 | 0.881 | 1.14 | inactive |
| OR8S1 (olfactory receptor family 8 subfamily S member 1) | 2.14 | 2.1 | 2.52 | active |
| PPP1R2 (protein phosphatase 1 regulatory inhibitor subunit 2) | -0.947 | -1.55 | -0.868 | inactive |
| BTNL8 (butyrophilin like 8) | 1.75 | 1.32 | 1.67 | inactive |
| HPGD (15-hydroxyprostaglandin dehydrogenase) | -0.582 | -0.134 | -1.21 | inactive |
| OR4A47 (olfactory receptor family 4 subfamily A member 47) | 0.996 | 0.832 | 0.468 | inactive |
| GLYAT (glycine-N-acyltransferase) | -1.33 | -0.743 | -0.998 | inactive |
| OR52W1 (olfactory receptor family 52 subfamily W member 1) | -0.252 | 1.23 | 1.76 | inactive |
| FBXW12 (F-box and WD repeat domain containing 12) | -0.404 | -0.0324 | -0.0637 | inactive |
| CEACAM4 (CEA cell adhesion molecule 4) | -1.41 | -1.27 | -0.94 | inactive |
| MYO5B (myosin VB) | -0.418 | -0.255 | -0.0907 | inactive |
| POLE4 (DNA polymerase epsilon 4, accessory subunit) | -0.557 | -1.75 | -2.02 | inactive |
| OSTM1 (osteoclastogenesis associated transmembrane protein 1) | 0.961 | -1.27 | 0.636 | inactive |
| TAS2R16 (taste 2 receptor member 16) | -0.695 | -0.321 | -0.102 | inactive |
| LOC441809 (retired record) | -0.159 | 0.275 | 0.121 | inactive |
| RP1 (RP1 axonemal microtubule associated) | 0.73 | 1.02 | 1.13 | inactive |
| SLC31A2 | -0.286 | -0.168 | -0.89 | inactive |
| FGFBP2 (fibroblast growth factor binding protein 2) | -1.14 | -1.11 | -1.78 | inactive |
| CDH24 (cadherin 24) | 1.67 | 1.21 | 1.22 | inactive |
| DNAJB4 (DnaJ heat shock protein family (Hsp40) member B4) | 0.707 | 1.01 | 0.672 | inactive |
| SHROOM1 (shroom family member 1) | 0.497 | 0.368 | 0.905 | inactive |
| TIMM9 (translocase of inner mitochondrial membrane 9) | 0.447 | 1.72 | 1.4 | inactive |
| MMP10 (matrix metallopeptidase 10) | -0.355 | 0.838 | 0.473 | inactive |
| PSMB4 (proteasome 20S subunit beta 4) | 0.602 | 0.232 | 0.621 | inactive |
| LOC441041 (retired record) | 0.879 | 0.187 | 0.038 | inactive |
| RECQL4 (RecQ like helicase 4) | 0.116 | 0.972 | -0.0137 | inactive |
| NR4A3 (nuclear receptor subfamily 4 group A member 3) | 1.04 | 0.356 | -0.137 | inactive |
| GOLGA5 (golgin A5) | -0.801 | -0.903 | 1.68 | inactive |
| STOML2 (stomatin like 2) | 1.1 | -1.22 | 0.34 | inactive |
| PARD6A (par-6 family cell polarity regulator alpha) | 0.849 | -0.182 | 1.26 | inactive |
| LOC285444 (retired record) | 0.341 | 0.393 | 0.525 | inactive |
| SERPINB3 (serpin family B member 3) | 1.76 | -0.0791 | 1.24 | inactive |
| OAF (out at first homolog) | 0.135 | 0.0813 | 0.231 | inactive |
| CNTN3 (contactin 3) | 0.0172 | -0.873 | -0.788 | inactive |
| KRT78 (keratin 78) | -1.09 | -1.55 | -2.06 | inactive |
| RAP1GAP2 (RAP1 GTPase activating protein 2) | 1.69 | 2.59 | 1.75 | inactive |
| PRKG1 (protein kinase cGMP-dependent 1) | -0.27 | 0.0316 | 0.779 | inactive |
| TOB2 (transducer of ERBB2, 2) | -0.249 | 0.522 | -1.72 | inactive |
| SYNM (synemin) | -1.78 | -1.92 | -1.32 | inactive |
| LYRM9 (LYR motif containing 9) | -2.16 | -2.11 | -0.902 | active |
| GDPGP1 (GDP-D-glucose phosphorylase 1) | -1.6 | -1.73 | -1.39 | inactive |
| THEMIS2 (thymocyte selection associated family member 2) | -0.708 | 0.13 | -1.34 | inactive |
| PDZD8 (PDZ domain containing 8) | 0.674 | 1.04 | 0.0529 | inactive |
| IL12RB2 (interleukin 12 receptor subunit beta 2) | 0.744 | 0.979 | 0.564 | inactive |
| GATA4 (GATA binding protein 4) | -1.4 | -0.987 | -1.16 | inactive |
| OR11L1 (olfactory receptor family 11 subfamily L member 1) | 1.03 | 0.994 | 0.927 | inactive |
| LOC442180 (retired record) | -0.781 | -0.536 | -0.733 | inactive |
| LOC389192 (retired record) | 0.687 | -0.333 | -0.398 | inactive |
| CYP11A1 (cytochrome P450 family 11 subfamily A member 1) | 0.454 | 0.331 | 0.32 | inactive |
| CIAO2AP2 (CIAO2A pseudogene 2) | -0.219 | 0.365 | 0.64 | inactive |
| PDE5A (phosphodiesterase 5A) | -1.97 | -1.61 | -1.66 | inactive |
| SQLE (squalene epoxidase) | 1.84 | 4.05 | 2.71 | active |
| HAAO (3-hydroxyanthranilate 3,4-dioxygenase) | -1.06 | -0.501 | -0.246 | inactive |
| CNTD1 (cyclin N-terminal domain containing 1) | 0.307 | -0.4 | -0.501 | inactive |
| FSCN1 (fascin actin-bundling protein 1) | -0.0487 | 1.84 | 0.407 | inactive |
| RAB26 (RAB26, member RAS oncogene family) | -1.89 | -1.83 | -1.41 | inactive |
| PCDHB2 (protocadherin beta 2) | 0.0576 | 0.384 | 0.251 | inactive |
| PLEKHB2 (pleckstrin homology domain containing B2) | -0.65 | -1.7 | 0.373 | inactive |
| LOC391426 (retired record) | 1.45 | 0.845 | 0.912 | inactive |
| HYKK (hydroxylysine kinase) | 1.02 | 0.949 | 1.79 | inactive |
| BST2 (bone marrow stromal cell antigen 2) | -0.943 | -0.993 | -1.51 | inactive |
| AP4S1 (adaptor related protein complex 4 subunit sigma 1) | -1.55 | -0.984 | -1.07 | inactive |
| DKFZp451B082 | 0.535 | 0.212 | 0.438 | inactive |
| LOC388210 (retired record) | -0.171 | -0.334 | -0.1 | inactive |
| RAVER2 (ribonucleoprotein, PTB binding 2) | 1.41 | 0.885 | -0.751 | inactive |
| AMBN (ameloblastin) | -0.587 | -1.53 | -1.58 | inactive |
| NUBP1 (NUBP iron-sulfur cluster assembly factor 1, cytosolic) | 0.128 | 0.235 | 0.318 | inactive |
| IQUB (IQ motif and ubiquitin domain containing) | 0.312 | 0.374 | -0.217 | inactive |
| SLC25A27 | -0.678 | -0.541 | -0.393 | inactive |
| KCNS1 | 0.013 | 0.765 | 1.55 | inactive |
| ESPN (espin) | 0.573 | 1.58 | 0.022 | inactive |
| EML5 (EMAP like 5) | -1.08 | -1.18 | -0.51 | inactive |
| RNF26 (ring finger protein 26) | -0.836 | -1.47 | -0.281 | inactive |
| TERF1P5 (TERF1 pseudogene 5) | 0.584 | 0.652 | 0.594 | inactive |
